## Screening data, single-dose tests

Mtb glucose medium: 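Growth of Mycobacterium tuberculosis over 3 days (7H9 medium with glucose and tyloxapol); the read-out is not stated. Concentration: 500 µM. The record gives no direction; compounds that gave an IC50 in retests scored well above the rest, so higher reads as more growth inhibition. About 18,000 compounds were tested under these conditions; 7.9% (about 1,400) showed 50% or more at least once.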
Mtb cholesterol medium: 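Growth of Mycobacterium tuberculosis over 4 days (cholesterol / DPPC medium with tyloxapol); the read-out is not stated. Compounds at 500 µM. The record gives no direction; compounds that gave an IC50 in retests scored well above the rest, so higher reads as more growth inhibition. Size under these conditions: about 18,000 compounds, about 900 of them at 50% or above in at least one test.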

The filed quantity is “Percent Effect” (%).
How 0% and 100% were set is not recorded. Most values in the screen are low, and negative values occur.
This is an unselected part of the compounds tested.

| # | compound | Mtb glucose medium | Mtb cholesterol medium |
|---|---|---|---|
| 1 | `CN(C)C(=O)CCN1CCCC[C@@H]1CO` | -17.39% | -20.57% |
| 2 | `CN1CCCN(C(=O)C2COc3ccccc3C2)CC1` (centres unmarked) | 18% | -14.22% |
| 3 | `Cc1ncc(Cn2cc(F)ccc2=O)s1` | 52.86% | -17.76% |
| 4 | `COC1CCN(CC(=O)Nc2ccc(C(N)=O)cc2)C1` (centres unmarked) | 6.711% | -4.912% |
| 5 | `O=C(Nc1nc2c(s1)COCC2)c1cnsn1` | -6.961% | -11.43% |
| 6 | `NS(=O)(=O)c1ccc(OCC2CCNC2)cc1` (centres unmarked) | -0.4765% | -11.45% |
| 7 | `Cc1cccnc1CSc1nnnn1CC1CCCO1` (centres unmarked) | 36.95% | 12.34% |
| 8 | `CC(C)(CC(N)=O)NC(=O)c1ccccn1` | 4.59% | 2.927% |
| 9 | `CCCC(O)(CCC)CC(=O)N1CCNC(=O)C1` | -1.117% | 20.87% |
| 10 | `NC1CCN(CC(F)F)C1` (centres unmarked) | 3.594% | 8.904% |
| 11 | `CC(CN)N(C)C(=O)c1ccc2ccccc2c1` (centres unmarked) | 22.74% | 18.39% |
| 12 | `OC1(C(F)(F)F)CCNC1` (centres unmarked) | -5.269% | -6.136% |
| 13 | `NC(=O)c1ccccc1C(F)(F)F` | 5.944% | 5.864% |
| 14 | `CCCNC(=O)N1CCN(Cc2c(C)noc2C)CC1` | 0.3493% | 0.7329% |
| 15 | `COc1ccc(N2CCNC(C)C2)cc1` (centres unmarked) | 30.82% | 33.37% |
| 16 | `Cc1n[nH]c(C)c1C(NC(N)=O)c1ccccc1` (centres unmarked) | 8.584% | -0.5366% |
| 17 | `O=C(c1ccc(F)cc1)C(O)O` | 16.84% | 8.682% |
| 18 | `O=C(NCc1cccc(Cl)c1)c1cnns1` | 81.09% | 70.12% |
| 19 | `O=C(NCc1ccccc1F)N1CC[C@H](CO)[C@H](O)C1` | 11.85% | -12.55% |
| 20 | `Cc1noc2ncn(CC(=O)NC3CC3)c(=O)c12` | 5.375% | -1.625% |
| 21 | `CC1(CNC(=O)NCC2(C)COC2)CCC1` | 30% | 6.116% |
| 22 | `CC(=O)Nc1ccc(C(=O)CC#N)cc1` | -15.51% | -1.642% |
| 23 | `CC(CN)CNC(=O)c1ccc(C(F)(F)F)cc1` (centres unmarked) | 51.73% | 22.88% |
| 24 | `CC1CCCN(Cc2ccc(CN)cc2)C1` (centres unmarked) | 21.18% | 8.745% |
| 25 | `Cc1cc(NC(C)C)ccc1C(N)=O` | 18.81% | 22.98% |
| 26 | `NC(=O)C1(c2ccccc2F)CCCC1` | 3.201% | 1.655% |
| 27 | `CCc1nc(CN[C@H](CO)C(C)C)no1` | 6.712% | 4.468% |
| 28 | `COC(=O)c1ccc(OCC(O)CNC(C)(C)C)cc1` (centres unmarked) | 28.78% | 32.62% |
| 29 | `NCc1nc(-c2ccccn2)cs1` | 21.12% | 6.359% |
| 30 | `c1ccc2[nH]c(C3CNC3)nc2c1` | 31.53% | 16.59% |
| 31 | `O=C(NCCCn1cc(Cl)cn1)C1CCOCC1` | 18.81% | 1.491% |
| 32 | `COc1ccnc(CN)c1F` | 13.43% | -4.456% |
| 33 | `CCC(=O)Nc1ccc(C)c(-n2cnnn2)c1` | 7.166% | -14.63% |
| 34 | `CC(C)(CO)NCC(O)c1cccc(F)c1` (centres unmarked) | -0.2563% | -1.903% |
| 35 | `CCN1CCN(c2ccc(C#N)cn2)CC1` | 18.73% | 7.735% |
| 36 | `CCn1nc(C(=O)NC)c2ccccc2c1=O` | -6.837% | -8.809% |
| 37 | `CCOc1ccc(Cn2cccc(C)c2=O)nc1` | 35.13% | 10.86% |
| 38 | `O=C(NCCN1CCCC1)c1csc(-c2ccco2)n1` | 66.08% | 39.45% |
| 39 | `C=C(C)CN1CCN(c2ccccn2)CC1` | 19.59% | 72.67% |
| 40 | `O=C(CCc1ccccn1)Nc1ccc(CCO)cc1` | 8.549% | 2.029% |
| 41 | `COCCC(=O)Nc1cc(OC)ccn1` | -10.65% | -17.86% |
| 42 | `Cc1nc(N)sc1C(=O)NC(c1cccnc1)C(C)C` (centres unmarked) | 14.18% | 13.25% |
| 43 | `CC[C@@H](O)CN1CCOCC1CC(=O)c1ccccc1` (some centres unmarked) | 31.33% | 22.44% |
| 44 | `Cc1cnn(CCNc2ccc(F)cn2)c1` | 53.28% | 46.06% |
| 45 | `Cc1cc(NC(=O)COC(=O)c2cccc(F)c2)[nH]n1` | -4.974% | -7.875% |
| 46 | `Cc1cc(S(N)(=O)=O)ccc1CN` | 6.896% | 3.819% |
| 47 | `CCOc1ncccc1CNC(=O)c1ccnn1C` | 7.781% | -12.59% |
| 48 | `COCCNC(=O)N1CCCN(C(=O)C(C)(C)C)CC1` | 11.89% | 11.81% |
| 49 | `N#Cc1ccc(S(=O)(=O)NCCCN)cc1C(F)(F)F` | 61.79% | 39.87% |
| 50 | `CNCCCNC(=O)c1coc(Br)c1` | 6.344% | -17.26% |
| 51 | `CCN1CCCN(CC(=O)NC(C)(C#N)C(C)C)CC1` (centres unmarked) | 6.657% | -2.579% |
| 52 | `Cc1ccc2c(c1)OC(C)C(=O)N2` (centres unmarked) | 19.24% | 10.89% |
| 53 | `CC(C)Cc1cc(CN)on1` | 5.324% | 16.54% |
| 54 | `CCc1cnc(CCNS(=O)(=O)c2cccnc2)s1` | 32.83% | 6.041% |
| 55 | `Cc1cc(C(=O)NCCc2ccncc2)nc(N)n1` | 7.437% | 7.888% |
| 56 | `CC(CN)c1nncn1C` (centres unmarked) | -7.487% | -3.399% |
| 57 | `Cn1cc(NC(=O)CNc2ccccc2Cl)cn1` | 15.37% | -6.278% |
| 58 | `CN1C(=O)N[C@@H]2CNCC[C@@H]21` | -7.867% | -14.81% |

4 of the entries, repeated:

compound	Mtb glucose medium	Mtb cholesterol medium
CC(=O)Nc1ccc(C(=O)CC#N)cc1	-15.51%	-1.642%
CC(C)Cc1cc(CN)on1	5.324%	16.54%
Cc1n[nH]c(C)c1C(NC(N)=O)c1ccccc1 (centres unmarked)	8.584%	-0.5366%
CC[C@@H](O)CN1CCOCC1CC(=O)c1ccccc1 (some centres unmarked)	31.33%	22.44%

Source: ChEMBL document CHEMBL3988442, “University of Dundee, Small-Polar-MMV Screening Library” (2021).